{"source": "patent US20030156977A1", "about": "“Method for rapidly sterilizing a load” (priority 2000, published 2003)", "details": "for -ln (Cf/Co) / Cf, final concentration of hydrogen peroxide / Cf/Co / Area under C versus t curve: 8.6 mg/L H2O2 injected, 6 trays, 20 min pre-plasma; for Area under C versus t curve: from time of maximum concentration", "method": "The pressure inside the chamber was also monitored as a function of time. After the completion of the sterilization cycle, the chamber was vented, the equipment was removed, and the inoculated coupons were tested for growth in the medium. […] The sterilization results and the summary of the various methods of analyzing the hydrogen concentration data are shown in Table 2 below.\nThe data were analyzed in various ways to determine whether a method could be found to quickly determine the suitability of the load for sterilization.\nFIGS. 5-8 show graphs of ln(c/c0) versus time for a validation load (FIG. 5), a heavy load (FIG. 6), a heavy load with a new towel (FIG. 7), and a heavy load with an old towel (FIG. 8).\nThe initial slopes in Table 2 are recorded as the negative of the initial slopes for simplicity in recording the data.\nThe final concentration is measured at the end of the diffusion step 50, prior to evacuating and generating the post-injection plasma.", "key": {"[1]": {"details": "Group 3: heavy load, 1 new towel"}, "[2]": {"details": "Group 3: heavy load, 2 new towels"}, "[3]": {"details": "Group 4: heavy load, 1 old towel"}}, "note": "Where “and” joins values, the source holds several entries; their conditions need not be identical. Equal entries are not always repeated. Where two headings read alike, the source gives them in different places."}
{"smiles": "OO", "note": "[hydrogen peroxide]", "values": [{"measurement": "Average final concentration of hydrogen peroxide", "setting": "Group 1 validation loads", "result": 0.92, "unit": "mg/L"}, {"measurement": "Average area under the curve", "setting": "Group 1 validation runs", "result": 512, "unit": "mg·s/L"}, {"measurement": "-ln (Cf/Co)", "setting": "Group 2: heavy load, 1 filter", "result": 2.05}, {"measurement": "Cf, final concentration of hydrogen peroxide", "setting": "Group 2: heavy load, 1 filter", "result": 0.50, "unit": "mg/L"}, {"measurement": "Cf/Co", "setting": "Group 2: heavy load, 1 filter", "result": 0.13}, {"measurement": "Area under C versus t curve", "setting": "Group 2: heavy load, 1 filter", "result": 392, "unit": "mg·s/L"}, {"measurement": "-ln (Cf/Co)", "setting": "Group 2: heavy load, 2 filters", "result": 2.22}, {"measurement": "Cf, final concentration of hydrogen peroxide", "setting": "Group 2: heavy load, 2 filters", "result": 0.46, "unit": "mg/L"}, {"measurement": "Cf/Co", "setting": "Group 2: heavy load, 2 filters", "result": 0.11}, {"measurement": "Area under C versus t curve", "setting": "Group 2: heavy load, 2 filters", "result": 373, "unit": "mg·s/L"}, {"measurement": "-ln (Cf/Co)", "setting": "Group 2: heavy load, brass", "result": 1.80}, {"measurement": "Cf, final concentration of hydrogen peroxide", "setting": "Group 2: heavy load, brass", "result": 0.51, "unit": "mg/L"}, {"measurement": "Cf/Co", "setting": "Group 2: heavy load, brass", "result": 0.16}, {"measurement": "Area under C versus t curve", "setting": "Group 2: heavy load, brass", "result": 364, "unit": "mg·s/L"}, {"measurement": "-ln (Cf/Co)", "setting": "Group 2: heavy load, mat", "result": "2.11 and 2.06"}, {"measurement": "Cf, final concentration of hydrogen peroxide", "setting": "Group 2: heavy load, mat", "result": "0.47 mg/L and 0.49 mg/L"}, {"measurement": "Cf/Co", "setting": "Group 2: heavy load, mat", "result": "0.12 and 0.13"}, {"measurement": "Area under C versus t curve", "setting": "Group 2: heavy load, mat", "result": "429 mg·s/L and 439 mg·s/L"}, {"measurement": "-ln (Cf/Co)", "setting": "Group 2: heavy load", "result": 2.12}, {"measurement": "Cf, final concentration of hydrogen peroxide", "setting": "Group 2: heavy load", "result": 0.46, "unit": "mg/L"}, {"measurement": "Cf/Co", "setting": "Group 2: heavy load", "result": 0.12}, {"measurement": "Area under C versus t curve", "setting": "Group 2: heavy load", "result": 398, "unit": "mg·s/L"}, {"measurement": "Final concentration of hydrogen peroxide, range over runs", "setting": "Group 2 heavy load runs (all variants)", "result": "0.46 to 0.51", "unit": "mg/L"}, {"measurement": "Average area under the curve", "setting": "Group 2 heavy loads", "result": 399, "unit": "mg·s/L"}, {"measurement": "Average final concentration of hydrogen peroxide", "setting": "Group 2 heavy loads", "result": 0.48, "unit": "mg/L"}, {"measurement": "-ln (Cf/Co)", "setting": "[1]", "result": 3.14}, {"measurement": "Cf, final concentration of hydrogen peroxide", "setting": "[1]", "result": 0.12, "unit": "mg/L"}, {"measurement": "Cf/Co", "setting": "[1]", "result": 0.04}, {"measurement": "Area under C versus t curve", "setting": "[1]", "result": 156, "unit": "mg·s/L"}, {"measurement": "-ln (Cf/Co)", "setting": "[2]", "result": 3.48}, {"measurement": "Cf, final concentration of hydrogen peroxide", "setting": "[2]", "result": 0.08, "unit": "mg/L"}, {"measurement": "Cf/Co", "setting": "[2]", "result": 0.03}, {"measurement": "Area under C versus t curve", "setting": "[2]", "result": 129, "unit": "mg·s/L"}, {"measurement": "-ln (Cf/Co)", "setting": "Group 3: heavy load, 6/8 towel", "result": 2.59}, {"measurement": "Cf, final concentration of hydrogen peroxide", "setting": "Group 3: heavy load, 6/8 towel", "result": 0.24, "unit": "mg/L"}, {"measurement": "Cf/Co", "setting": "Group 3: heavy load, 6/8 towel", "result": 0.08}, {"measurement": "Area under C versus t curve", "setting": "Group 3: heavy load, 6/8 towel", "result": 246, "unit": "mg·s/L"}, {"measurement": "Final concentrations of hydrogen peroxide, range over runs", "setting": "Group 3 and Group 4 runs with heavy loads and towels", "result": "0 to 0.24", "unit": "mg/L"}, {"measurement": "Average area under the curve", "setting": "Group 3 heavy loads with a new towel", "result": 177, "unit": "mg·s/L"}, {"measurement": "-ln (Cf/Co)", "setting": "[3]", "result": "7.71 and 6.94"}, {"measurement": "Area under C versus t curve", "setting": "[3]", "result": "76 mg·s/L and 118 mg·s/L"}, {"measurement": "Average area under the curve", "setting": "Group 4 heavy loads with old towels", "result": 97, "unit": "mg·s/L"}]}
